Results as given in PubChem BioAssay AID2685 (National Center for Advancing Translational Sciences (NCATS), 2010).
Some of the results follow. Further columns of the screen follow, without active or inactive calls. Compounds called inactive in the main read-out are mostly missing here. Potencies come from curve fits of mixed quality, noted in brackets.

Assay: qHTS Assay for Lipid Storage Modulators in Drosophila S3 Cells;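 as to cell number change: cells counted by Cell Tracker Red CMTPX staining in the red channel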
Settings: BODIPY lipid droplet fluorescence, 18-24 h; for cell number change: measured here: cell count max response, cells fed with added oleic acid
Outline: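 Laser-scanning cytometry quantifies lipid droplet accumulation (500–530 nm total intensity; droplet/cell object ratio) in oleic acid-fed (400 uM added) Drosophila S3 cells treated with a concentration series. 20 uM Triacsin C defined 100% inhibition.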

[1] = measured here: lipid fluorescence (Fed channel) AC50, cells fed with added oleic acid
[2] = measured here: cell number channel AC50, cells fed with added oleic acid

SMILES	cell number change [%]	AC50 [1]	AC50 [2]
COC(=O)[C@H](C)NC(=O)Nc1cccc(C)c1	5.72	0.0058 µM [falling, full curve, poor fit]	
CCOC(=O)C/C(N)=N/N(C)c1ncc(C(F)(F)F)cc1Cl			0.58 µM [falling, single point]
NS(=O)(=O)c1ccc(NC(=O)CN2C(=O)c3ccccc3C2=O)cc1	-12.3		
Cc1cc(C(=O)N/N=C2\CCCc3ccccc32)c(C)o1	3.44	7.31 µM [rising, partial curve]	
O=S(=O)(c1ccc2nc(-c3ccccc3)[nH]c2c1)N1CCN(c2cccc(Cl)c2)CC1	28.7		
O=C(O)c1ccc(O)c2ncccc12	-18.6	0.731 µM [falling, full curve, poor fit]	0.0517 µM [falling, full curve, poor fit]
CC(C)(C)C1CCC(C(=O)OCC(=O)N2CCN(C(=O)c3ccco3)CC2)CC1 (stereo not given)			6.51 µM [rising, single point]
O=S(=O)(c1ccccc1)c1nc(-c2ccco2)oc1Nc1ccccc1	-2.74		
COc1ccc(NC(=O)CN(CC(=O)Nc2ccc(OC)cc2)C(C)(C)CO)cc1	54.2		
COCC(=O)Nc1ccc([N+](=O)[O-])cc1OC	-83.3		29.1 µM [falling, single point]
COc1ccc(-c2csc(NC3CCCCC3)n2)c(OC)c1	-22.9		
Cc1ccccc1N1C(=O)CSC1=C(C#N)C#N		0.326 µM [falling, full curve]	0.00461 µM [falling, full curve, poor fit]
Cc1cc(/C=N/n2cnnc2)c(C)n1-c1ccc(OCc2ccc(F)cc2)cc1	-27.5	6.51 µM [falling, single point]	
O=C(Nc1cccc(Cl)c1)C1CCCCC1	-16.6	0.146 µM [falling, full curve, poor fit]	
CC1(CC(=O)N/N=C/c2ccc(-c3cccc(C(F)(F)F)c3)o2)OCCO1	-23.2	0.103 µM [rising, partial curve, poor fit]	0.461 µM [rising, partial curve, poor fit]
c1csc(-c2ccnc3ncnn23)c1	-3.62	7.31 µM [rising, partial curve]	
Cc1nc2ccccc2n1CC(O)COCC1CC=CCC1 (stereo not given)	-1.53		
COc1ccc(S(=O)(=O)N/N=C(/C)c2ccc(Cl)cc2)cc1	-31.4	0.58 µM [falling, full curve, poor fit]	10.3 µM [falling, single point]
COc1ccc(N2CCN(CC(=O)Nc3nc4c(s3)CC(C)CC4)CC2)cc1 (stereo not given)	-13.9	14.6 µM [rising, single point]	
O=C(COc1ccc2ccccc2c1)Nc1ccc(S(=O)(=O)N2CCCCCC2)cc1	-18.3	29.1 µM [falling, single point]	

SMILES	cell number change [%]	AC50 [1]	AC50 [2]
Cc1cccc(OCCn2nc(C(=O)O)c3ccccc3c2=O)c1		4.61 µM [rising, single point]	1.03 µM [rising, partial curve]
CN(C)c1ccc(NC(=O)CSc2nc(C3CC3)nc3ccccc23)cc1	9.21	2.51 µM [falling, partial curve]	
COc1cc(C2CC(=O)c3cnc(N4CCN(Cc5ccccc5)CC4)nc3C2)cc(OC)c1OC (stereo not given)			0.92 µM [rising, partial curve]
CCOC(=O)c1cc2c(=O)n3ccccc3nc2n(Cc2ccccc2)c1=N			1.84 µM [rising, partial curve, poor fit]
COc1ccc2c(c1)-c1c(sn(-c3ccccc3)c1=S)C(C)(C)N2	-55	29.1 µM [falling, single point]	29.1 µM [falling, single point]
Cc1ccc(-c2nnc(N3CCCCCC3)c3ccccc23)cc1	-15.7	7.31 µM [falling, partial curve]	
O=C(O)CCC(=O)Nc1ccc(C(=O)OC2CCCCC2)cc1	4.89	0.0366 µM [rising, single point]	
O=c1c(-c2ccccc2)c1-c1ccccc1	-49.5	16.4 µM [falling, single point]	20.6 µM [falling, single point]
Cc1nc2ccc(NS(=O)(=O)c3c(F)cc(F)cc3Br)cc2s1	22.3		
Cc1ccc(S(=O)(=O)Nc2cc(=O)[nH]c(SCC(=O)Nc3cccc(C(F)(F)F)c3)n2)cc1	1.61		
Cc1ccc(OCCN2CCN(c3nc(NCc4ccco4)c4ccccc4n3)CC2)cc1	-58.6		32.6 µM [falling, partial curve, poor fit]
COc1cccc(/C=N/NC(=O)CCNc2n[nH]c(=O)[nH]c2=O)c1OC	0.637	29.1 µM [falling, single point]	0.103 µM [rising, full curve, poor fit]
CCOC(=O)N1CCC(Nc2c(NCCN3CCN(Cc4ccccc4)CC3)c(=O)c2=O)CC1	-19.8	32.6 µM [falling, single point]	
C=C1C(C(=O)Nc2ccc(OCC)cc2)C1C(=O)Nc1ccc(OCC)cc1 (stereo not given)	-1.37	0.0231 µM [rising, full curve, poor fit]	
O=C1CN(C(=O)COC(=O)C2CC(=O)N(Cc3ccco3)C2)c2ccccc2N1 (stereo not given)	-6.01	3.66 µM [falling, single point]	
COc1ccc(/C=N/Nc2nc(=O)[nH]nc2C)cc1OC	-12.7		2.59 µM [rising, single point]
Cc1ccc(NC(=O)C2CC(=O)Nc3nncn32)cc1 (stereo not given)	-45.5	2.06 µM [falling, partial curve, poor fit]	23.1 µM [falling, partial curve]
Cc1ccc(Oc2ccc(N)cc2)cc1	9.03	0.731 µM [rising, full curve]	0.651 µM [rising, partial curve, poor fit]
CC(C)(C)NC(=O)COC(=O)c1ccccc1C(=O)c1ccccc1	11.2		
O=C(Nc1ccc2c(c1)OCO2)c1cnn2cccnc12	-1.56	2.59 µM [rising, full curve]	

SMILES	cell number change [%]	AC50 [1]	AC50 [2]
COc1ccc(N2CCN(c3ncccc3C#N)CC2)cc1	13.4	0.0517 µM [rising, full curve, poor fit]	
CC(C)N1C(=O)CCC1C(=O)O (stereo not given)	-6.39	0.731 µM [rising, single point]	
COC(=O)c1ccccc1S(=O)(=O)N1CCC(C(=O)OCC(=O)NC2CCCCC2C)CC1 (stereo not given)	11	0.13 µM [falling, full curve, poor fit]	1.46 µM [rising, partial curve, poor fit]
CCCc1nc2oc(C(=O)OCC)c(N)c2c2c1COC(C)(C)C2	-9.3	0.461 µM [rising, full curve]	
CCCCC(=O)NCc1ccc(F)cc1	-56.5	29.1 µM [falling, single point]	18.4 µM [falling, single point]
Cc1cc(C(=O)CSC(C)c2nc3ccccc3c(=O)[nH]2)c(C)n1C (stereo not given)	24.2	16.4 µM [rising, single point]	
CC(C)CN1C(=O)C(NC(=O)C2CC2)(C(F)(F)F)C2=C1CC(C)(C)CC2=O (stereo not given)	-26.9	0.82 µM [falling, full curve, poor fit]	0.00411 µM [falling, full curve, poor fit]
COCCN1C(=O)C(=O)/C(=C(/O)c2ccc(S(=O)(=O)N3CCCCC3)cc2)C1c1ccc(OC)cc1 (stereo not given)	28.7	0.651 µM [rising, full curve, poor fit]	
CC(=O)c1ccc(NC(=O)c2sc3nc4n(c(=O)c3c2C)CCCCC4)cc1		29.1 µM [falling, single point]	
O=C(Cc1c[nH]c2ccccc12)NCc1ccc(Cl)cc1	-39.3	3.66 µM [falling, full curve]	0.92 µM [falling, full curve]
O=C(Cn1ccc([N+](=O)[O-])n1)N1CCCCCC1	-22.3		
COc1ccc(NC(=O)c2sc3nc(C)nc(N4CCOCC4)c3c2C)c(OC)c1		3.66 µM [rising, partial curve, poor fit]	
COc1ccc(NC(=O)CSCc2ccccc2C)cc1	-0.407		
Cc1ccc(NC(=O)c2ccc(NC(=O)C3CCCCC3C(=O)O)cc2)cc1 (stereo not given)	-0.578	18.4 µM [rising, single point]	
CCc1ccc(-c2nnn(Cc3nc4ccccc4s3)n2)cc1	-9.14	20.6 µM [rising, partial curve]	
C1CCN(c2nc3nonc3nc2N2CCCCC2)CC1	-4.33	29.1 µM [rising, single point]	
CCOC(=O)c1cnc2c(ccc3ccccc32)c1N	-1.76	7.31 µM [rising, partial curve, poor fit]	
N=c1n(CC(=O)c2ccc(Br)s2)c2ccccc2n1Cc1ccccc1	-52.9	29.1 µM [falling, single point]	29.1 µM [falling, single point]
COc1ccc(CCN2CC(C(=O)N(C)CC(=O)Nc3ccc(Cl)c(C(F)(F)F)c3)CC2=O)cc1OC (stereo not given)	-25		0.13 µM [falling, full curve, poor fit]
CC(C)Nc1nc(Oc2ccc(Cl)cc2Cl)cc(C(F)(F)F)n1		0.146 µM [rising, full curve, poor fit]	

Rewritten in markdown: entries from further up

| SMILES | cell number change [%] | AC50 [1] | AC50 [2] |
| --- | --- | --- | --- |
| CC(=O)c1ccc(NC(=O)c2sc3nc4n(c(=O)c3c2C)CCCCC4)cc1 |  | 29.1 µM [falling, single point] |  |
| O=C(Cc1c[nH]c2ccccc12)NCc1ccc(Cl)cc1 | -39.3 | 3.66 µM [falling, full curve] | 0.92 µM [falling, full curve] |
